These are yes or no findings as the source states them, for the method shown. In cells and extracts the contact can be indirect. Some results given as binding are weak or reduced against the parent protein; the word gives no strength. Values belong to the substance of their own block, whether it stands above or below them.
Columns and labels:
[1] = target: CDT2, endogenous (human (endogenous in HeLa)) (UniProt Q9NZJ0); experiment: co-IP; HeLa cells synchronized in mid S-phase, protein-protein cross-linked before harvest (protocol of ref. 39, for chromatin); total extract immunoprecipitated with serum as control or the indicated antibodies; immunoblot
[2] = target: CDT2, endogenous (human (endogenous in HeLa)) (UniProt Q9NZJ0); experiment: co-IP; HeLa cells synchronized by double thymidine block, harvested 2.5 hrs after release (mid S-phase), where indicated transfected with myc-CUL4B; lysis in 420 mM NaCl, 50 mM Tris-HCl pH 7.5, 1% NP-40, diluted to 150 mM NaCl; 0.5-0.8 mg extract per IP; control serum; interactions resistant to ethidium bromide; immunoblot
myc-tagged CUL4B = myc-tagged CUL4B (UniProt Q13620); experiment: as above
[3] = target: Cullin-4A (CUL4A), endogenous (human (endogenous in HeLa)) (UniProt Q13619); experiment: as above
[4] = target: T1, HLTF, endogenous (human (endogenous in HeLa)) (UniProt Q14527); experiment: co-IP; HeLa cells synchronized in mid S-phase, protein-protein cross-linked before harvest (protocol of ref. 39, for chromatin); total extract immunoprecipitated with serum as control or the indicated antibodies; immunoblot
T1 sequence: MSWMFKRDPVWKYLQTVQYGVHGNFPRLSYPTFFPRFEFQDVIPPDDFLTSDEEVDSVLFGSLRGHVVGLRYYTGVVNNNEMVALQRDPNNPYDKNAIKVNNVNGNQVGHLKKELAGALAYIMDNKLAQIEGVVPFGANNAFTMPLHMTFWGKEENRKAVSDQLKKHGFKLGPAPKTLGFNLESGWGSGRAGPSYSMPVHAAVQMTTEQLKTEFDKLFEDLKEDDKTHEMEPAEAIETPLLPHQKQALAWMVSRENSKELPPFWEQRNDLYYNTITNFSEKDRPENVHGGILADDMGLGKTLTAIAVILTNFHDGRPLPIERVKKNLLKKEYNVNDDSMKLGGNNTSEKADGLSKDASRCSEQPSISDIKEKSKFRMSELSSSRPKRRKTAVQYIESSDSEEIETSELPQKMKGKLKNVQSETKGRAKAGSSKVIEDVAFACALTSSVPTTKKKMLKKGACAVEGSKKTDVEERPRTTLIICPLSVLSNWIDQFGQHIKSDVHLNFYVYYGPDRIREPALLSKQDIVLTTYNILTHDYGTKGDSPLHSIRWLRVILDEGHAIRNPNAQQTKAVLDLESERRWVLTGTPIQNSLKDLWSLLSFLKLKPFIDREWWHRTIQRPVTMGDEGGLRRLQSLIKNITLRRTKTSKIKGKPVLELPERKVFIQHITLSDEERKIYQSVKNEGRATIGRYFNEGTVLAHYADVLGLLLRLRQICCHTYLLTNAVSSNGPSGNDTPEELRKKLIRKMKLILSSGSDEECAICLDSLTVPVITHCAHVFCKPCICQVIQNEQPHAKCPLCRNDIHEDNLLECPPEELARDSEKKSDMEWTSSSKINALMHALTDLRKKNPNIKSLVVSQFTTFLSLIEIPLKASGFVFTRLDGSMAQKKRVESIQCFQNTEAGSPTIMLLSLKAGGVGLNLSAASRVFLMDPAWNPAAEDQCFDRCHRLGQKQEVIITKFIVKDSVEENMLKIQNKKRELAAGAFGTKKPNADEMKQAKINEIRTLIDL

Sequences of proteins named here, by UniProt entry; tags and fusion partners are left off.
UniProt Q9NZJ0: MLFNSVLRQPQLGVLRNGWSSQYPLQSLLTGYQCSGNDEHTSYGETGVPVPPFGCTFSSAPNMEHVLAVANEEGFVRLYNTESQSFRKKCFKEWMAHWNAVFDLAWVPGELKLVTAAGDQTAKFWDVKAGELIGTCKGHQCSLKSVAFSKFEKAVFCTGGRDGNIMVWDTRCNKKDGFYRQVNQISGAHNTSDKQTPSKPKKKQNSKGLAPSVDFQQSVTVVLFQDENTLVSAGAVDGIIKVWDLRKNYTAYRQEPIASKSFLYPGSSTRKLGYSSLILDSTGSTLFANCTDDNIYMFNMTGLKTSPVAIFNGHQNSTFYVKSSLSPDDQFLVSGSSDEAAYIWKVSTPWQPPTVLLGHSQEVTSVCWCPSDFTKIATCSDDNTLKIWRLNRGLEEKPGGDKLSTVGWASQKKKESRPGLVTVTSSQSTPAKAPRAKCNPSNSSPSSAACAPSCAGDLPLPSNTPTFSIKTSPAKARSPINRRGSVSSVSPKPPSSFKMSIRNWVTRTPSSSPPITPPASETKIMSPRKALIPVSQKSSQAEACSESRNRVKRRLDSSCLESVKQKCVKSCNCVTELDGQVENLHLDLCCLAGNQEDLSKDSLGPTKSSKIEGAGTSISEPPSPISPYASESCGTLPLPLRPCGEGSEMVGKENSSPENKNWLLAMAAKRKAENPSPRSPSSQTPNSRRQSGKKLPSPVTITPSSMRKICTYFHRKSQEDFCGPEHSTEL
UniProt Q13620: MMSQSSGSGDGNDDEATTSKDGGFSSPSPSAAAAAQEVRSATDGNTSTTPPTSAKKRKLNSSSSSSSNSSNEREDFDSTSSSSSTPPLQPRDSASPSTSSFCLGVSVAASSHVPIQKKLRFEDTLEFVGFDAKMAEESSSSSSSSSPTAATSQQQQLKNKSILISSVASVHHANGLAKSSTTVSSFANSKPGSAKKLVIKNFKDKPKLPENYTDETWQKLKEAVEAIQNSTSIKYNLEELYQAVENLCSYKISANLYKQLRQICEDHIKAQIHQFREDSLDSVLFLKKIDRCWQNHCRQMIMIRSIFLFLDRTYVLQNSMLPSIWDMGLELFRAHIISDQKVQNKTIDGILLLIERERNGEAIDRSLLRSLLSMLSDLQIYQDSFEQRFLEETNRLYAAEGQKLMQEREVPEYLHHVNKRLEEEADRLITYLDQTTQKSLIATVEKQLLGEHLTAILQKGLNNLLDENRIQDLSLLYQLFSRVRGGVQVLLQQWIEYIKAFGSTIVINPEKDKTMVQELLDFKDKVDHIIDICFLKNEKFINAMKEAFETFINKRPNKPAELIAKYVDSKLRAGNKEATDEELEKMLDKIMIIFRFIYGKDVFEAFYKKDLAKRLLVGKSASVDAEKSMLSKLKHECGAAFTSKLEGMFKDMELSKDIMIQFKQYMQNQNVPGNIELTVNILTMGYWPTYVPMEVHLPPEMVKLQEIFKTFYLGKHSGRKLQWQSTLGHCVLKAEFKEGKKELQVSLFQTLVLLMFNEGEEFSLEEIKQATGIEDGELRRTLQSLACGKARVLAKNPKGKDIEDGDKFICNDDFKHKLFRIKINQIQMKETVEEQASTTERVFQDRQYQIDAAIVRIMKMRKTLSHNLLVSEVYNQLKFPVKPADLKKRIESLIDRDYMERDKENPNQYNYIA
UniProt Q13619: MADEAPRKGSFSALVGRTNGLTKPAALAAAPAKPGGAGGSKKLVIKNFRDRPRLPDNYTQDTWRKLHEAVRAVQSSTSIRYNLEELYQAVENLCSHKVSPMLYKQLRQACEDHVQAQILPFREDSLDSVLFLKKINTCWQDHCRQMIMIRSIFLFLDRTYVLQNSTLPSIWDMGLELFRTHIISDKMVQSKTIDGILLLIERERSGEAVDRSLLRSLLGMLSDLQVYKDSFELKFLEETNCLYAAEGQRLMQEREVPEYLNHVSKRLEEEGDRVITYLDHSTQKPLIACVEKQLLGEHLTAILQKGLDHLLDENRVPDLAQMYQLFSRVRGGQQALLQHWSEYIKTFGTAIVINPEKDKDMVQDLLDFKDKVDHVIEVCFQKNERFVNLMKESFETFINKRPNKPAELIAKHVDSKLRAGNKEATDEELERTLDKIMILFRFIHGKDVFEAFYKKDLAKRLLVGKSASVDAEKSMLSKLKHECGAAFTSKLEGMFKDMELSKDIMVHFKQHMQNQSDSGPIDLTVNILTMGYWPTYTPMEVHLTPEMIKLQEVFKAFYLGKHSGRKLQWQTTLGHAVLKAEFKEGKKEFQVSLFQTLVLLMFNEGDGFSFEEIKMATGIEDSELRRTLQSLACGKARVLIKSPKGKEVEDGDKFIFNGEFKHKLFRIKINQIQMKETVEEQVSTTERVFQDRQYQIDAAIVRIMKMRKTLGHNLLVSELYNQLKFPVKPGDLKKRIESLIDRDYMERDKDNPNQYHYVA
UniProt Q92905: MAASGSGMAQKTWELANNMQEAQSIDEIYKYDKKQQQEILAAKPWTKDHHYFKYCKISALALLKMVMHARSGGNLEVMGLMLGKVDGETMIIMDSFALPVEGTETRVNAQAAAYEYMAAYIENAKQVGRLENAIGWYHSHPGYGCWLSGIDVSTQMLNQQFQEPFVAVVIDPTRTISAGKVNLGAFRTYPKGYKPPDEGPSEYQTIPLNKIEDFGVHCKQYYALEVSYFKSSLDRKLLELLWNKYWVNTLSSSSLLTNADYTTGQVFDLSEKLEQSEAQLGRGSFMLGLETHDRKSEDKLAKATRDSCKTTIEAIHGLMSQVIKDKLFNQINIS
UniProt Q149N8: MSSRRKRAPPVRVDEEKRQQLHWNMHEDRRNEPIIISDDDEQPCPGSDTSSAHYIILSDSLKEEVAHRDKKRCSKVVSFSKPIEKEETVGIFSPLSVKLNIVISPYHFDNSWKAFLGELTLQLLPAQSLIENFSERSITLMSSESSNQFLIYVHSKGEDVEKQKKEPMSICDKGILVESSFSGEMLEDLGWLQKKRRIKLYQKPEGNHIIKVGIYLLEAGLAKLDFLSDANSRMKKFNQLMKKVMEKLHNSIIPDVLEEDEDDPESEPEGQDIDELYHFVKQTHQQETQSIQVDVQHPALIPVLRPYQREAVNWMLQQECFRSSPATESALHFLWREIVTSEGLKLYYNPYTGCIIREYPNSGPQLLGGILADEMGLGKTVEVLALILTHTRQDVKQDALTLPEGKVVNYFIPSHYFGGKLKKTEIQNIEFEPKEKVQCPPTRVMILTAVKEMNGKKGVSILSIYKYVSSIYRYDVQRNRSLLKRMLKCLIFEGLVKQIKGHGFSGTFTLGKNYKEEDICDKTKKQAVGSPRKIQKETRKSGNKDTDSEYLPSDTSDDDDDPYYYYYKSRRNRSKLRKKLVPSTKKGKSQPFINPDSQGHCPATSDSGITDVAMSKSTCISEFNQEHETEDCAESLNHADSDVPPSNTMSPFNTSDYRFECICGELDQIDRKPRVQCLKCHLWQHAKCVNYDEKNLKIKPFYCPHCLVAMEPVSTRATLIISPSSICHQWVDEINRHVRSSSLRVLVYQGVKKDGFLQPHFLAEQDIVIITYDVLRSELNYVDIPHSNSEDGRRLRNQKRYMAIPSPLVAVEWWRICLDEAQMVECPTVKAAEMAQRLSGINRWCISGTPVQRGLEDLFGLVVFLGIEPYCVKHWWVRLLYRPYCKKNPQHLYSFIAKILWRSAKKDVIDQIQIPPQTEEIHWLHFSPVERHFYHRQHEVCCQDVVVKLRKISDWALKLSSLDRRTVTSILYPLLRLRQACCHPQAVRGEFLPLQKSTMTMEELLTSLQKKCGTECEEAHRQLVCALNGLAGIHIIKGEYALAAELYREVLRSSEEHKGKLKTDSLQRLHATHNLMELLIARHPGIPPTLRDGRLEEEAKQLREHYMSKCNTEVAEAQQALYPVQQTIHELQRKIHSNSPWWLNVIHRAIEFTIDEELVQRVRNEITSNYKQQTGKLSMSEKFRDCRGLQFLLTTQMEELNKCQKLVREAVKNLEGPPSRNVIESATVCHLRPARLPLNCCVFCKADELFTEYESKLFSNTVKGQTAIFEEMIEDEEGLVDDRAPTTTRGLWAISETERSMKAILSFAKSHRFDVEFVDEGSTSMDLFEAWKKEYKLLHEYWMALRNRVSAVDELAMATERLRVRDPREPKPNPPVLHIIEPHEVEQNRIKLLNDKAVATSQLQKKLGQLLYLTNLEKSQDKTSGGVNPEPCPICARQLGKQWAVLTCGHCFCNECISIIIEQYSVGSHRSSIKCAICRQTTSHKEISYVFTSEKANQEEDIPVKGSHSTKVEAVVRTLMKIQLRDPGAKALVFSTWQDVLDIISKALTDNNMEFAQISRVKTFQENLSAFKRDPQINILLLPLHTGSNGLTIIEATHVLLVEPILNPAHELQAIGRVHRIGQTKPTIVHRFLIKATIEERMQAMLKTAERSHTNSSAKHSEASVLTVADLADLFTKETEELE
UniProt Q9NS91: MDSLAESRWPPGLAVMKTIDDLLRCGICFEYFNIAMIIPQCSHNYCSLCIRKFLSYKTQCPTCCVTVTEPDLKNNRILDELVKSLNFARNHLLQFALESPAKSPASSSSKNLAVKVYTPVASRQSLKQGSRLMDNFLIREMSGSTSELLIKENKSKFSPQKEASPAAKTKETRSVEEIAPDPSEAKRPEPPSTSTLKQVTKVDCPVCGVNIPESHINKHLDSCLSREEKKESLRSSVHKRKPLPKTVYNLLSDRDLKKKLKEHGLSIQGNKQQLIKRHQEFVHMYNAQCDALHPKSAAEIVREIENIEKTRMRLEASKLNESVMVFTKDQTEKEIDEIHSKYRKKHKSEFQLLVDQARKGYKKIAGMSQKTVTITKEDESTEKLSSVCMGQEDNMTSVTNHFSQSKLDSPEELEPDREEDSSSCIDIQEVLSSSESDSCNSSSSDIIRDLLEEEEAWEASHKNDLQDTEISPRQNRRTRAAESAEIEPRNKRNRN

Substance: myc-tagged CUL4B (from UniProt Q13620 1-913)
binding [2]: binds

Substance: Cullin-4A (CUL4A), endogenous (from UniProt Q13619 1-759)
binding [2]: binds | binding (myc-tagged CUL4B): binds

Substance: CDT2, endogenous (from UniProt Q9NZJ0 1-730)
binding [4]: binds

Substance: CSN5 (COP9 signalosome subunit 5), endogenous (from UniProt Q92905 1-334)
binding [2]: binds

Results, then the substance that gave them:

binding [1]: binds
Substance: SHPRH, endogenous (from UniProt Q149N8 1-1683)

binding [2]: binds | binding (myc-tagged CUL4B): binds | binding [3]: binds
Substance: Cullin-4B (CUL4B), endogenous (from UniProt Q13620 1-913)

binding [4]: binds | binding [1]: binds
Substance: RAD18, endogenous (from UniProt Q9NS91 1-495)

— PMC3612035
